No constants are given. Whether binding was seen depends on the method and setting. In cells and extracts the contact can be indirect. Some results given as binding are weak or reduced against the parent protein; the word gives no strength.

Amino acid sequences for entries named in this document (tags omitted).
UniProt Q8B6J8: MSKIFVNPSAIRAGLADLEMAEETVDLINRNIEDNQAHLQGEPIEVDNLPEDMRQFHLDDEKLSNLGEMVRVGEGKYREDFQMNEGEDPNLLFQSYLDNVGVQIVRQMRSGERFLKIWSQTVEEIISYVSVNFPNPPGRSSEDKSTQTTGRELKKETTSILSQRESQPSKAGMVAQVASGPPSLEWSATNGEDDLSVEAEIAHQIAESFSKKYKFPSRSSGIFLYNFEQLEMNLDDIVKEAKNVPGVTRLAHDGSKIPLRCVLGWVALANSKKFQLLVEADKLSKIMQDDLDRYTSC

The assay concerns the target Flag-P (Flury) (Rabies virus strain HEP-Flury) (UniProt Q8B6J8). Description: co-IP.

B1: Cdc37 expressed from pCI-neo-Cdc37 (protein, UniProt Q61081 1-379)
chain: MVDYSVWDHIEVSDDEDETHPNIDTASLFRWRHQARVERMEQFQKEKEELDRGCRECKRKVAECQRKLKELEVAESDGQVELERLRAEAQQLRKEERSWEQKLEDMRKKEKNMPWNVDTLSKDGFSKSMVNTKPEKAEEDSEEAREQKHKTFVEKYEKQIKHFGMLHRWDDSQKYLSDNVHLVCEETANYLVIWCIDLEVEEKCALMEQVAHQTMVMQFILELAKSLKVDPRACFRQFFTKIKTADHQYMEGFKYELEAFKERVRGRAKLRIEKAMKEYEEEERKKRLGPGGLDPVEVYESLPEELQKCFDVKDVQMLQDAISKMDPTDAKYHMQRCIDSGLWVPNSKSGEAKEGEEAGPGDPLLEAVPKAGNEKDVSA
With B1, the binding result is on record as “binds”.

For the origin of these results see PMC4890047.
